This passage reports survivor count and T/C results from PubChem BioAssay AID330 (DTP/NCI, 2004).

SMILES strings stand for the structures. The list shows only some results of the screen, not a fair sample: it gathers tests that were run many times, whatever their T/C, doses with no T/C, and many T/C values between a quarter and a half above the control. Other doses and runs of a compound stand elsewhere. T/C is the treated group as % of the vehicle group. Some doses have a count of surviving animals in place of a T/C: the source holds a T/C of zero for them, seemingly a mark for toxic or unscored doses. Some survivor counts are full or nearly so, which does not show that the dose was tolerated: survival well below the control is almost never listed, so the zero probably covers shortened survival too. Survivors were counted at the toxicity check, usually on the fifth day, unless a day is given; later deaths do not show. Schedule codes are those of the source, taken here to give the interval after Q, in days (D) or hours (H), and the number of doses after X. Where survival is the endpoint, the PubChem record calls one and a half times the control and up active, and a quarter to a half above the control has no call in these data; cut-offs in other NCI protocols can differ. Some doses were run more than once; the results are listed from low to high. Some T/C values are followed by the survivors on the day toxicity was checked, most often the fifth; where none is given, no animal had died by that day.

For this experiment, the system named is P388 leukemia ip, CD2F1 mice, survival T/C. In words: NCI In Vivo Anticancer Drug Screen. Data for tumor model P388 Leukemia (intraperitoneal) in CD2F1 (CDF1) mice. Particulars: T/C endpoint: median survival time, higher T/C = longer survival.
Where [1] appears, read: dose: 200.0 mg/kg/injection, schedule: Q01DX009 (ip), vehicle: Klucel (hydroxypropylcellulose) (HPC).
Where [2] appears, read: dose: 240.0 mg/kg/injection, schedule: Q01DX005 (ip), vehicle: saline with Tween-80.
Where [3] appears, read: dose: 200.0 mg/kg/injection, schedule: Q01DX009 (ip), vehicle: saline.
Where [4] appears, read: dose: 6.25 mg/kg/injection, schedule: Q04DX003 (ip), vehicle: saline.
[5] abbreviates: dose: 100.0 mg/kg/injection, schedule: Q01DX009 (ip), vehicle: saline with Tween-80.
Where [6] appears, read: dose: 200.0 mg/kg/injection, schedule: Q01DX009 (ip), vehicle: saline with Tween-80.

Take `CC1(C)N=C(N)N=C(N)N1c1cc(C(F)(F)F)cc(C(F)(F)F)c1`: the survivor count runs as follows: (dose: 60.0 mg/kg/injection, schedule: Q01DX005 (ip), vehicle: saline) 0 of 6; (dose: 120.0 mg/kg/injection, schedule: Q01DX005 (ip), vehicle: saline) 0 of 6; (dose: 240.0 mg/kg/injection, schedule: Q01DX005 (ip), vehicle: saline) 0 of 6.

On to `[Cl][Pt+2][Cl].[NH-]C(c1ccc(Cl)cc1)C([NH-])c1ccc(Cl)cc1` (stereo not drawn), for which the T/C runs as follows: (dose: 12.5 mg/kg/injection, schedule: Q04DX002 (ip), vehicle: saline with Tween-80) 131 % of control; (dose: 25.0 mg/kg/injection, schedule: Q04DX002 (ip), vehicle: saline with Tween-80) 133 % of control.

As to `COCCOC(=O)CCn1cc(F)c(=O)[nH]c1=O`, the T/C was 133 % of control (dose: 200.0 mg/kg/injection, schedule: Q04DX002 (ip), vehicle: saline); 132 and 139 % of control (dose: 400.0 mg/kg/injection, schedule: Q04DX002 (ip), vehicle: saline); 141 % of control (dose: 800.0 mg/kg/injection, schedule: Q04DX002 (ip), vehicle: saline). Further, the survivor count (dose: 1600.0 mg/kg/injection, schedule: Q04DX002 (ip), vehicle: saline) is 6 of 6.

`Cc1[nH]c(=O)[nH]c(=O)c1/C=C/C(=O)NC(CO)CS(=O)CS(C)=O` (stereo not drawn): the T/C (dose: 3.3 mg/kg/injection, schedule: Q01DX009 (ip), vehicle: water) is 132 % of control; the T/C (dose: 4.8 mg/kg/injection, schedule: Q01DX009 (ip), vehicle: water) was 135 % of control; the T/C (dose: 5.0 mg/kg/injection, schedule: Q01DX009 (ip), vehicle: water) was 137 % of control; the T/C (dose: 7.5 mg/kg/injection, schedule: Q01DX009 (ip), vehicle: water) is 136 % of control; the T/C (dose: 9.6 mg/kg/injection, schedule: Q01DX009 (ip), vehicle: water) was 128 % of control [4 of 6 alive]; the T/C (dose: 11.3 mg/kg/injection, schedule: Q01DX009 (ip), vehicle: water) is 144 % of control. Besides, the survivor count (dose: 19.2 mg/kg/injection, schedule: Q01DX009 (ip), vehicle: water) is reported as 1 of 6.

For `CC(=O)OC1OC(CF)C(OC(C)=O)C1OC(C)=O` (stereo not drawn), under “dose: 400.0 mg/kg/injection, schedule: Q04DX003 (ip), vehicle: saline with Tween-80”, the survivor count is listed as 3 of 6.

`CCN(CC)CCNc1ccc(C)c2sc3cccc(O)c3c(=O)c12`: the T/C (dose: 50.0 mg/kg/injection, schedule: Q01DX009 (ip), vehicle: Klucel (hydroxypropylcellulose) (HPC)) was 143 % of control. The survivor count under setting [1] was 6 of 6.

Regarding `Cc1c(Cl)cccc1NC(=O)Nc1nccs1`, under setting [1], the survivor count is on record as 1 of 6.

For `COC(=O)c1c(COC(=O)NC(C)C)c2n(c1C)CS(=O)(=O)C2`, the survivor count (dose: 100.0 mg/kg/injection, schedule: Q01DX005 (ip), vehicle: saline with Tween-80) is 4 of 6.

With `COc1cc2ccc3c(c2cc1OC)CN1CCCC1C3` (stereo not drawn), the survivor count by setting is: (dose: 100.0 mg/kg/injection, schedule: Q01DX005 (ip), vehicle: Klucel (hydroxypropylcellulose) (HPC)) 0 of 6; (dose: 200.0 mg/kg/injection, schedule: Q01DX005 (ip), vehicle: Klucel (hydroxypropylcellulose) (HPC)) 0 of 6.

Turning to `CCOC(CN1Cc2cc(OC)c(OC)cc2CC1c1ccc(OC)c(OC)c1)OCC` (stereo not drawn), the survivor count under setting [2] was 6 of 6.

Turning to `O=c1[nH]c(=O)c2ncn(C3OC(CO)C(O)C3O)c2[nH]1.O=c1[nH]c(=O)c2ncn(C3OC(CO)C(O)C3O)c2[nH]1.[NH2-].[NH2-].[Pt+2]` (stereo not drawn), the T/C runs as follows: (dose: 50.0 mg/kg/injection, schedule: Q04DX003 (ip), vehicle: water) 133 % of control; (dose: 100.0 mg/kg/injection, schedule: Q04DX003 (ip), vehicle: water) 137 % of control; under setting [3], 147 % of control; (dose: 200.0 mg/kg/injection, schedule: Q04DX003 (ip), vehicle: water) 137 % of control; (dose: 400.0 mg/kg/injection, schedule: Q04DX003 (ip), vehicle: suspension in saline) 129 % of control; (dose: 800.0 mg/kg/injection, schedule: Q04DX003 (ip), vehicle: suspension in saline) 134 % of control. The survivor count is recorded as 3 of 3 under setting [3]; 3 of 3 (dose: 400.0 mg/kg/injection, schedule: Q01DX009 (ip), vehicle: saline); 0 of 3 (dose: 800.0 mg/kg/injection, schedule: Q04DX003 (ip), vehicle: water).

For `CC[CH2][Sn]([F])([F])[CH2]CC`, the T/C reads like this: (dose: 3.12 mg/kg/injection, schedule: Q04DX003 (ip), vehicle: saline) 128 % of control; under setting [4], 129 % of control. The survivor count runs as follows: under setting [4], 0 of 6; (dose: 25.0 mg/kg/injection, schedule: Q04DX003 (ip), vehicle: saline) 0 of 6; (dose: 100.0 mg/kg/injection, schedule: Q04DX003 (ip), vehicle: saline) 0 of 6; (dose: 200.0 mg/kg/injection, schedule: Q04DX003 (ip), vehicle: saline) 0 of 6; (dose: 400.0 mg/kg/injection, schedule: Q04DX003 (ip), vehicle: saline) 0 of 6.

As for `S=C(NCNC(=S)c1ccncc1)c1ccncc1`, the T/C is 133 % of control (dose: 200.0 mg/kg/injection, schedule: Q01DX005 (ip), vehicle: saline with Tween-80) and 135 % of control (dose: 400.0 mg/kg/injection, schedule: Q01DX005 (ip), vehicle: saline with Tween-80).

For `COc1cc2c(cc1OC)C1CC(OC(=O)c3ccccc3)(c3nccc4cc(OC)c(OC)cc34)CCN1CC2` (stereo not drawn), the survivor count is, setting by setting: under setting [5], 3 of 6; under setting [6], 1 of 6.

Consider `Cc1n[nH]c(=O)n(/N=C/c2ccc(N(C)C)cc2)c1=O`, for which, where the note is “dose: 240.0 mg/kg/injection, schedule: Q01DX005 (ip), vehicle: Klucel (hydroxypropylcellulose) (HPC)”, the survivor count was 6 of 6.

On to `N=C(N)c1ccc(OCCCCOc2ccc(N)cc2Cl)cc1`, for which the survivor count is, setting by setting: (dose: 120.0 mg/kg/injection, schedule: Q01DX005 (ip), vehicle: saline with Tween-80) 4 of 6; under setting [2], 0 of 6.

Regarding `CN=C(C)Nc1ccccc1OC`, the survivor count was 0 of 6 (dose: 100.0 mg/kg/injection, schedule: Q01DX009 (ip), vehicle: saline) and 0 of 6 under setting [3].

Consider `Cc1cc(C)c2ccc(NN=O)nc2n1`, for which the T/C runs as follows: (dose: 3.12 mg/kg/injection, schedule: Q01DX009 (ip), vehicle: water) 128 % of control; (dose: 6.25 mg/kg/injection, schedule: Q01DX009 (ip), vehicle: water) 128 and 136 % of control; (dose: 12.5 mg/kg/injection, schedule: Q01DX009 (ip), vehicle: water) 136 % of control. Also, the survivor count (dose: 50.0 mg/kg/injection, schedule: Q01DX009 (ip), vehicle: water) was 6 of 6.

Turning to `COc1cccc2c1C(=O)c1c(O)c3c(c(O)c1C2=O)CC(O)(C(C)=O)CC3OC1CC(NC(=O)CN(C)C)C(O)C(C)O1` (stereo not drawn), the T/C by setting is: (dose: 1.0 mg/kg/injection, schedule: Q01DX009 (ip), vehicle: water) 127 % of control; (dose: 2.0 mg/kg/injection, schedule: Q01DX009 (ip), vehicle: water) 140 % of control; (dose: 4.0 mg/kg/injection, schedule: Q01DX009 (ip), vehicle: water) 146 % of control; (dose: 8.0 mg/kg/injection, schedule: Q01DX009 (ip), vehicle: water) 149 % of control.

For `Cc1c2ccccc2c(C)c2c1ccc1ccccc12`, the T/C (dose: 12.5 mg/kg/injection, schedule: Q01DX009 (ip), vehicle: saline with Tween-80) was 126 and 130 % of control. Moreover, the survivor count reads like this: under setting [5], 6 of 6; under setting [6], 6 of 6; (dose: 200.0 mg/kg/injection, schedule: Q04DX003 (ip), vehicle: other) 0 of 6; (dose: 400.0 mg/kg/injection, schedule: Q01DX009 (ip), vehicle: saline with Tween-80) 5 of 6.

With `CC1NC(=O)C(C(C)C)NC(=O)C2=CN(Cc3ccccc3)C=CC2NC(=O)C(C)NC(=O)C(C(C)C)NC(=O)C2=CN(Cc3ccccc3)C=CC2NC1=O` (stereo not drawn), under setting [2], the survivor count is given as 0 of 6.
